Measured values reported in publication PMC10897450.
Residue numbers refer to the chain shown, from its start. These are yes or no findings as the source states them, for the method shown. Binding seen in cells or lysates may run through a third protein. For some assays here: A result given as binding can be weak or reduced; the word gives no strength. Sequences can lack the tags named with a protein.

By UniProt entry, the sequences of proteins in these tests, tags left out. Where a name states a change or a piece, a line headed by the entry shows the natural chain unless it says otherwise.
UniProt P24814: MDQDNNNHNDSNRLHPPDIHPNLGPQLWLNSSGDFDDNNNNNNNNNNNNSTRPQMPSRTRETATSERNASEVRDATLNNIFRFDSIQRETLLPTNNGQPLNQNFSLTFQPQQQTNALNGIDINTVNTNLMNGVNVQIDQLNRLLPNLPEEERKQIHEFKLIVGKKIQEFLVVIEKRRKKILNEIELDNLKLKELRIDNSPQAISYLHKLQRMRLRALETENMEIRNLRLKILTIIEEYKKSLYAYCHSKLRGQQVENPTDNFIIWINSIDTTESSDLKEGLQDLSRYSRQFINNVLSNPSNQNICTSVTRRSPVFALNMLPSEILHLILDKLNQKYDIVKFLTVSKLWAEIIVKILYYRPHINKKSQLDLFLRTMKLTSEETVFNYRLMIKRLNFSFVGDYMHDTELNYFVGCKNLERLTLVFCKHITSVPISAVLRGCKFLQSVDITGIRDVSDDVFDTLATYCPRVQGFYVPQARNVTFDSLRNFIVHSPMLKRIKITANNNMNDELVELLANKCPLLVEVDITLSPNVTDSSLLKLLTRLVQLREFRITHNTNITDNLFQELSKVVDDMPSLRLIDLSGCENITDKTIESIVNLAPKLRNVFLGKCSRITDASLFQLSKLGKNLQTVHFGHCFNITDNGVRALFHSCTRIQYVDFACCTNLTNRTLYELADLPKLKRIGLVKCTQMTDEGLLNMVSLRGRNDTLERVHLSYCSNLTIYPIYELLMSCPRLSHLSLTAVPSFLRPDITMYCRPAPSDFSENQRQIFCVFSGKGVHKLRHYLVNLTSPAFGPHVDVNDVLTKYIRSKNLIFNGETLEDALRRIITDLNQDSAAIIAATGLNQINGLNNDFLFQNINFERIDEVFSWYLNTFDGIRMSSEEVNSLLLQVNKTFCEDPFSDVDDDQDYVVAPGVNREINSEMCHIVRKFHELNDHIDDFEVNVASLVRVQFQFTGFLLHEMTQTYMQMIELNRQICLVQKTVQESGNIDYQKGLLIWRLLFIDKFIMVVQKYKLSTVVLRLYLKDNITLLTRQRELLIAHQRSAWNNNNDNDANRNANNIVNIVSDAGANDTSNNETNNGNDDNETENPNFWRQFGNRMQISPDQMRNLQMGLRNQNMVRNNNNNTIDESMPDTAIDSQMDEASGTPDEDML

Assays:
[1] = target: T1, Whi7-HA^S27A,T100A (S. cerevisiae) (UniProt P36167); assay: co-IP; Whi7-HA immunoprecipitated from crude extracts of grr1 cells overexpressing Grr1ΔF-FLAG (raffinose, then galactose for 4 h); Grr1ΔF detected by western analysis
T1 sequence: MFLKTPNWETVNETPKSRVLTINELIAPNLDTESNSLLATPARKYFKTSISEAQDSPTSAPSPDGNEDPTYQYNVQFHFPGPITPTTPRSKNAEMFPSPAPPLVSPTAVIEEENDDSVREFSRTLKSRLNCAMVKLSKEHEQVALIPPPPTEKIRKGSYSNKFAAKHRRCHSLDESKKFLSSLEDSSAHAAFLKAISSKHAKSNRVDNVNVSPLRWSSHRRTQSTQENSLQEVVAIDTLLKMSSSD

Whi7-HA (S. cerevisiae) = target: T2, Whi7-HA (S. cerevisiae) (UniProt P36167); assay: as above
T2 sequence: T1 sequence with A27S, A100T

For Grr1ΔF-FLAG (from UniProt P24814), the binding [1] was “no binding” and the binding (Whi7-HA (S. cerevisiae)) was “binds”.
